In doi:10.1101/672824:

Biological target: T1, wild-type TWIST1 BiFC fusions (TWIST1-CC155 and TWIST1-VN173) (mouse) (UniProt P26687)
T1 sequence: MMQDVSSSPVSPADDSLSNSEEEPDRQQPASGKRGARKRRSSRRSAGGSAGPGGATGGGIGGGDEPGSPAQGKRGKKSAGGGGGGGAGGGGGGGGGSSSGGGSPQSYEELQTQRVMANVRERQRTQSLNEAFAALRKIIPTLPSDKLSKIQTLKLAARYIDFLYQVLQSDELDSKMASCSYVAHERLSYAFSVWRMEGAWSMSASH
Assay: split reporter

Row | binding | Substance
1 | binds | TWIST1 lacking the N-terminus, CC155 fusion (mouse) (domain or fragment)
2 | binds | TWIST1 T121E; S123E-CC155 (phospho-mimetic double mutant) (mouse)

No constants are given. Whether binding was seen depends on the method and setting. In cells and extracts the contact can be indirect. A result given as binding can be weak or reduced; the word gives no strength. Tags and fused reporters may be left off the sequences shown.
